Data reported in article PMC4079689, “HIV Treatments Reduce Malaria Liver Stage Burden in a Non-Human Primate Model of Malaria Infection at Clinically Relevant Concentrations In Vivo” (PLoS ONE, 2014).
Where two headings read alike, the source gives them in different places.

Tests used:
[1] = in vivo; details: Indian origin, rhesus monkey, po
[2] = human historical data, cited from earlier work
[3] = Indian origin, rhesus monkey, in vivo, po

Cc1cc(NS(=O)(=O)c2ccc(N)cc2)no1 [Sulfamethoxazole]
AUC(0-t) [1]: 792 µg·h/mL | Tmax ([2]; TMP-SMX, ref Patel et al. 1980, Dudley et al. 1984): 1 to 4 h | AUC0–24 ([2]; dose 5 mg/kg trimethoprim and 25 mg/kg sulfamethoxazole iv, ref Dudley et al. Antimicrob Agents Chemother 1984;26:811–814): 1160 ^2 µg*hr/mL | Cmax ([2]; dose 160 mg trimethoprim and 800 mg sulfamethoxazole, ref Patel et al. Clin Pharmacokinet 1980;5:405–423): 40–60 ^1 µg/mL | Cmax [3]: 57.7 µg/mL
